Measurements from “University of Dundee, Small-Polar-MMV Screening Library” (2021), ChEMBL document CHEMBL3988442.

By UniProt entry, the sequences of proteins in these tests, tags left out. Residues count along the entry.
UniProt P9WFT3, whole entry: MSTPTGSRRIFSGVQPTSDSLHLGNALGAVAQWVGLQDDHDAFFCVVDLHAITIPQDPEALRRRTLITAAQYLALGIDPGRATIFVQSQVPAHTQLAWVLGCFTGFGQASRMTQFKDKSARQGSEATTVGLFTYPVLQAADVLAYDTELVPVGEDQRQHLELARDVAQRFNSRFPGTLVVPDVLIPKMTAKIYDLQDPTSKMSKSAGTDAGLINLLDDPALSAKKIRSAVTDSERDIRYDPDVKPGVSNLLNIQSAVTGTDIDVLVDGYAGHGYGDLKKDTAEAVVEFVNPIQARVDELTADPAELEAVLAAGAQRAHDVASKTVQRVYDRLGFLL
UniProt P9WPC5, whole entry: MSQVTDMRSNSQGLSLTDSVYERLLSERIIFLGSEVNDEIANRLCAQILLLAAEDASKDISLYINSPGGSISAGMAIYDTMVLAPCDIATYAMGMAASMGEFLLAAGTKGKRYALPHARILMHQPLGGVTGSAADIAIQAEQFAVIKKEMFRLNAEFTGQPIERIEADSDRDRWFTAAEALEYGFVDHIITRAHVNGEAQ
UniProt P9WPC3, whole entry partner: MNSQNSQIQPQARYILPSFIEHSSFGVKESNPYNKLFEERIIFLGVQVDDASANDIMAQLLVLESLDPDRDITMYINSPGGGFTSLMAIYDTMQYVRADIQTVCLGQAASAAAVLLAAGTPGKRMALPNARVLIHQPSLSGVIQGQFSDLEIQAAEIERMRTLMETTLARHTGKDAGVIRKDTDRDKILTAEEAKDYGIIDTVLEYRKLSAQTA
UniProt I6X8D2, whole entry: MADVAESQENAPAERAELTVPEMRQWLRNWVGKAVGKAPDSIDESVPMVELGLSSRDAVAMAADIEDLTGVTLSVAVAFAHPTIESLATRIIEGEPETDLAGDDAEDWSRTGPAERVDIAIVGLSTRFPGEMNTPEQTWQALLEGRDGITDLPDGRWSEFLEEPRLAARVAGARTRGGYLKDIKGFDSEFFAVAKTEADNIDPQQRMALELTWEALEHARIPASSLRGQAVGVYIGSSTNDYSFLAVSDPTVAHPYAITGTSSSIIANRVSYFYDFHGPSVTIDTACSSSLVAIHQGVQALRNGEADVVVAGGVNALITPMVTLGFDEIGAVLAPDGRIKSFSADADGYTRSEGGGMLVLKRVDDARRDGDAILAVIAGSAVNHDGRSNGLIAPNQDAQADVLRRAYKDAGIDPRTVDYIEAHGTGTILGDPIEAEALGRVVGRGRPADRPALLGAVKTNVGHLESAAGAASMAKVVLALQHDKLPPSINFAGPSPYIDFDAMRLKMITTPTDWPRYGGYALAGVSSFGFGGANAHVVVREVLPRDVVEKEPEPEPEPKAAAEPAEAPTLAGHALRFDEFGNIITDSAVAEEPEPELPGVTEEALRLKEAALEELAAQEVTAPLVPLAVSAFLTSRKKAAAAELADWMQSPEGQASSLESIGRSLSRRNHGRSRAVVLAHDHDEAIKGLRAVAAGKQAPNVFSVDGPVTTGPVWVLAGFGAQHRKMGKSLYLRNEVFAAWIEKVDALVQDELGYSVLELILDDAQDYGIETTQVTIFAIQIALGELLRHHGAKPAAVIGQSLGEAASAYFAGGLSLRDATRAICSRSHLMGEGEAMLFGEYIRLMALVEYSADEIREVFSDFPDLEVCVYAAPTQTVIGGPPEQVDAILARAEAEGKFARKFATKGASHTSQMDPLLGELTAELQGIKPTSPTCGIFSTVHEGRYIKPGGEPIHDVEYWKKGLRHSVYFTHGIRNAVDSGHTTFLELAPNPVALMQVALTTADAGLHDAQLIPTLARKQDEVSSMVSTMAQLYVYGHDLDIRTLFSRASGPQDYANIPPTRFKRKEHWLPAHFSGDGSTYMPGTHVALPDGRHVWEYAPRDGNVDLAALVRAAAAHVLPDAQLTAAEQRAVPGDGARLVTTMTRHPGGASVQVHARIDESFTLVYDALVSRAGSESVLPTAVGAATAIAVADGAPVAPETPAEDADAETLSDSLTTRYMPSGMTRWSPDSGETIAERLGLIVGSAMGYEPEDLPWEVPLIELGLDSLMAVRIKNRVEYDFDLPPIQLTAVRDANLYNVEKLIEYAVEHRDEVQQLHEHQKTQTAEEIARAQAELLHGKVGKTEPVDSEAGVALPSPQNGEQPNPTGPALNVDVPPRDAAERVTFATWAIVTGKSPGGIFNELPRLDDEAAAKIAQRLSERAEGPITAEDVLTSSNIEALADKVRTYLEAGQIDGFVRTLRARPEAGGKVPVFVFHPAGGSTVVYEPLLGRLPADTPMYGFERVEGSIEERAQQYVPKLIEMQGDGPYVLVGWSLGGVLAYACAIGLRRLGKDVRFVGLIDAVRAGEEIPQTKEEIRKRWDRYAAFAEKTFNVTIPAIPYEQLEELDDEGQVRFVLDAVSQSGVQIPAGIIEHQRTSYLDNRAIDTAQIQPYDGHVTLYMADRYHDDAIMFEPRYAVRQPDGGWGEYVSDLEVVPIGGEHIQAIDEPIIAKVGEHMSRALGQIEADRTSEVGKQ
UniProt Q8IDJ8, 1-583: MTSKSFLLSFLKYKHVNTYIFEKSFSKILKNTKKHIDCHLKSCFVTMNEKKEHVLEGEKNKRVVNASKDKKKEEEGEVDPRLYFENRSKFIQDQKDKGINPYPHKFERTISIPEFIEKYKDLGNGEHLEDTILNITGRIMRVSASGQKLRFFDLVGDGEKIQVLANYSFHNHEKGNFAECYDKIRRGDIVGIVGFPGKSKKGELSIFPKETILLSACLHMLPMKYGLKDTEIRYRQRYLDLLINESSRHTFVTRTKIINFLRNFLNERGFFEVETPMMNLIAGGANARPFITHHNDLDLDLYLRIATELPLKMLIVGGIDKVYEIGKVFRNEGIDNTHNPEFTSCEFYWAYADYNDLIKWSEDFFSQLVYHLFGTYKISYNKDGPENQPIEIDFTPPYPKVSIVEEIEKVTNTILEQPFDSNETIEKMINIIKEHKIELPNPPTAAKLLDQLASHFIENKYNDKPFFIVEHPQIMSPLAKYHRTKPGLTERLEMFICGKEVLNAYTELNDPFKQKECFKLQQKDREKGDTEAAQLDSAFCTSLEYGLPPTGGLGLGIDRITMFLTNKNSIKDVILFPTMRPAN

MtTrpRS: 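Tryptophan-tRNA ligase, Mycobacterium tuberculosis (UniProt P9WFT3). Enzyme assay of tryptophanyl-tRNA synthetase; the read-out is not stated. Concentration: 10 µM. Direction is not recorded; retested compounds ran higher, which suggests that high means inhibition. Of about 65,000 compounds tested this way, about 64 (0.098%) reached 50% or more in at least one test.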
ClpP1P2: 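ClpP1P2, Mycobacterium tuberculosis (UniProt P9WPC5 and UniProt P9WPC3). Protease assay of ClpP1P2, read by the AMC dye that it sets free. Tested at 50 µM. Higher reads as stronger inhibition, judged from the few compounds that gave an IC50. Most other retested compounds had strongly negative values. About 69,000 compounds were tested under these conditions; 0.015% (about 10) showed 50% or more at least once.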
Pks13 thioesterase: 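Polyketide synthase Pks13, Mycobacterium tuberculosis (UniProt I6X8D2). Enzyme assay of the thioesterase domain of polyketide synthase 13; the read-out is not stated. Tested at 30 µM. The record gives no direction; the compounds picked for IC50 retests had high values, so higher reads as stronger inhibition. About 67,000 compounds were tested under these conditions; 0.46% (about 300) showed 50% or more at least once.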
PfKRS1: 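Enzyme assay of the cytosolic lysyl-tRNA synthetase in 384-well plates, read by luminescence. Target: Lysine-tRNA ligase, Plasmodium falciparum 3D7 (UniProt Q8IDJ8). Tested at 30 µM. Direction is inferred from only a few compounds that gave an IC50; most scored high, so higher reads as stronger inhibition. Of about 69,000 compounds tested this way, about 49 (0.071%) reached 50% or more in at least one test.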

Each number is a percent effect as filed.
The record does not define 0% and 100%; most values in the screen are far below 50% and negative numbers occur (in some assays of this library far below -100).
This is an unselected part of the compounds tested.

Compound: COc1ccccc1OCc1cc(C(=O)N2CCC(NC(C)=O)C2)n[nH]1 (stereo not drawn)
MtTrpRS: 7.849
ClpP1P2: 4.076
Pks13 thioesterase: -28.47
PfKRS1: -1.725

Compound: CC[C@H]1COCCN1C(=O)c1cnc(C(C)C)nc1C
MtTrpRS: -1.27
ClpP1P2: 6.027
Pks13 thioesterase: 1.444
PfKRS1: 2.644

Compound: N#Cc1cccc(N2CCCC3(CNCCO3)C2)n1 (stereo not drawn)
MtTrpRS: 2.265
ClpP1P2: -16.65
Pks13 thioesterase: -25.78
PfKRS1: 5.209

Compound: CC(C)CN1CCC2(CC(C(=O)NCc3cccnc3)=NO2)C1 (stereo not drawn)
MtTrpRS: -3.255
ClpP1P2: -15.7
Pks13 thioesterase: 0.1444
PfKRS1: 2.807

Compound: CCNc1ncc(C(=O)N(C)Cc2nc3cc(Cl)ccc3[nH]2)cn1
MtTrpRS: -2.594
ClpP1P2: 1.45
Pks13 thioesterase: -33.6
PfKRS1: -1.882

Compound: CNc1cc(C2CN(Cc3coc(C)n3)CCO2)nc(C)n1 (stereo not drawn)
MtTrpRS: -9.255
ClpP1P2: 5.56
Pks13 thioesterase: 5.016
PfKRS1: 0.3495

Compound: Cc1cnn(CC2CCCN2CC(=O)Nc2nccs2)c1 (stereo not drawn)
MtTrpRS: 8.348
ClpP1P2: -21.14
Pks13 thioesterase: -18.77
PfKRS1: -0.5493

Compound: CCCc1nc(CNCC2CCCN2c2cccnn2)cs1 (stereo not drawn)
MtTrpRS: 4.959
ClpP1P2: -18.03
Pks13 thioesterase: -14.12
PfKRS1: -2.355

Compound: Cc1cc(CN(C)C(C(=O)O)c2cccc(C(F)(F)F)c2)on1 (stereo not drawn)
MtTrpRS: 3.537
ClpP1P2: -6.239
Pks13 thioesterase: -7.095
PfKRS1: 4.549

Compound: CC(C)Nc1nc2c(c(NC3CC3)n1)CN(C(=O)Cc1ccsc1)CC2
MtTrpRS: -1.066
ClpP1P2: 3.35
Pks13 thioesterase: -10.74
PfKRS1: 6.72

Compound: CCCS(=O)(=O)N1CC(=O)N(Cc2ccccc2OC)CC(O)C1 (stereo not drawn)
ClpP1P2: 15.19
PfKRS1: 1.278

Compound: Cc1ccc(C)c(NS(=O)(=O)c2cc3c(c(C(=O)O)c2)OCCO3)c1
MtTrpRS: -5.649
ClpP1P2: -28.03
Pks13 thioesterase: -7.651
PfKRS1: -0.2229

Compound: CN1CCC(NCC2(O)CCCN(Cc3ccccc3F)C2=O)CC1 (stereo not drawn)
MtTrpRS: 0.2018
ClpP1P2: -1.889
Pks13 thioesterase: -11.72
PfKRS1: 1.742

Compound: CCc1n[nH]c(SCC(=O)N2CCc3[nH]nc(C4CCC4)c3C2)n1
MtTrpRS: 0.2981
ClpP1P2: -10.59
Pks13 thioesterase: -18.78
PfKRS1: 1.468

Compound: O=C(NCCO)c1coc(Cn2cnc3ccccc32)n1
MtTrpRS: -5.695
ClpP1P2: 0.1979
Pks13 thioesterase: 15.47
PfKRS1: 0.04646

Compound: O=C1CC2(CCCCC2)CC(=O)N1CC(O)COCc1ccc(Cl)cc1 (stereo not drawn)
MtTrpRS: 3.688
ClpP1P2: -7.575
Pks13 thioesterase: -19.31
PfKRS1: 5.68

Compound: Cc1cc(C(=O)N2CCC(CCn3cccn3)CC2)c(C)o1
MtTrpRS: -1.49
ClpP1P2: -0.9894
Pks13 thioesterase: -15.38
PfKRS1: 4.862

Compound: CCOCC1CN(S(=O)(=O)CC)Cc2nn(C)cc21 (stereo not drawn)
MtTrpRS: -4.988
ClpP1P2: -5.627
Pks13 thioesterase: -0.1365
PfKRS1: 4.637

Compound: CC1=N[C@@]2(CC[C@@H]3CN(C(=O)NCC(C)C)C[C@@H]32)C(=O)N1CC(C)C
MtTrpRS: 6.97
ClpP1P2: -8.268
Pks13 thioesterase: -7.766
PfKRS1: -3.905

Compound: CCN(C(=O)Cc1ccc(NCc2ncc[nH]2)cc1)c1ccccc1
MtTrpRS: -1.715
ClpP1P2: -0.154
Pks13 thioesterase: -49.64
PfKRS1: 1.477

Compound: CNc1nc2c(s1)C(=O)CN(C(=O)[C@@H](N)Cc1cccc(OC)c1)C2
ClpP1P2: 2.608
Pks13 thioesterase: 22.98
PfKRS1: 2.729

Compound: CCOCC1CN(Cc2ccc(F)cc2)Cc2nn(CC3CC3)cc21 (stereo not drawn)
MtTrpRS: 0.000006
ClpP1P2: -12.18
Pks13 thioesterase: 1.769
PfKRS1: 3.596

Compound: CN1CCCC1CNC(=O)CCCOc1cccc(F)c1 (stereo not drawn)
MtTrpRS: -2.448
ClpP1P2: -12.79
Pks13 thioesterase: -10.91
PfKRS1: 2.193

The first 2 entries again:

Compound	MtTrpRS	ClpP1P2	Pks13 thioesterase	PfKRS1
COc1ccccc1OCc1cc(C(=O)N2CCC(NC(C)=O)C2)n[nH]1 (stereo not drawn)	7.849	4.076	-28.47	-1.725
CC[C@H]1COCCN1C(=O)c1cnc(C(C)C)nc1C	-1.27	6.027	1.444	2.644